No constants are given. Whether binding was seen depends on the method and setting. Some entries that bind do so weakly or less than the wild type.
Tests used:
mTie2-hFc (mouse) = experiment: SPR Biacore 25C
rTie2-hFc (rat) = experiment: SPR Biacore 25C
hTie1-hFc (human) = experiment: Luminex bead binding

B1: H1H2332B (antibody, V domains shown)
VH: QVQLQESGPGLVKPSETLSLTCTVSGASISSYYWTWFRQPPGQGLEWIGYIYYSGSTNYNPSLKSRVTISVDTSMNQFSLKLTSVTAADTAVYYCARQGGYTSSLFDYWGQGTLVTVSS
VL: DIQMTQSPSSLSASVGDRVTITCRASQSISSYLNWYQQKPGKAPKLLIYVVSSLQSGVPSRFSGSGSGTDFTLTISSLQPEDFATYYCQQSYSIPWTFGQGTKVEIK
**Q.** What does the source list for B1?
**A.** binding (mTie2-hFc (mouse)): binds; binding (rTie2-hFc (rat)): binds; binding (hTie1-hFc (human)): no binding (tested: MFI >500 = significant binding)

Reference: US20170174789A1
